# Results published in PubChem BioAssay (EPA / NIEHS).
# Chains of the proteins cited; added tags and fusions are not shown. Lines headed by an entry give the natural chain unless they say otherwise; changes in a name come on top.
# UniProt P21709: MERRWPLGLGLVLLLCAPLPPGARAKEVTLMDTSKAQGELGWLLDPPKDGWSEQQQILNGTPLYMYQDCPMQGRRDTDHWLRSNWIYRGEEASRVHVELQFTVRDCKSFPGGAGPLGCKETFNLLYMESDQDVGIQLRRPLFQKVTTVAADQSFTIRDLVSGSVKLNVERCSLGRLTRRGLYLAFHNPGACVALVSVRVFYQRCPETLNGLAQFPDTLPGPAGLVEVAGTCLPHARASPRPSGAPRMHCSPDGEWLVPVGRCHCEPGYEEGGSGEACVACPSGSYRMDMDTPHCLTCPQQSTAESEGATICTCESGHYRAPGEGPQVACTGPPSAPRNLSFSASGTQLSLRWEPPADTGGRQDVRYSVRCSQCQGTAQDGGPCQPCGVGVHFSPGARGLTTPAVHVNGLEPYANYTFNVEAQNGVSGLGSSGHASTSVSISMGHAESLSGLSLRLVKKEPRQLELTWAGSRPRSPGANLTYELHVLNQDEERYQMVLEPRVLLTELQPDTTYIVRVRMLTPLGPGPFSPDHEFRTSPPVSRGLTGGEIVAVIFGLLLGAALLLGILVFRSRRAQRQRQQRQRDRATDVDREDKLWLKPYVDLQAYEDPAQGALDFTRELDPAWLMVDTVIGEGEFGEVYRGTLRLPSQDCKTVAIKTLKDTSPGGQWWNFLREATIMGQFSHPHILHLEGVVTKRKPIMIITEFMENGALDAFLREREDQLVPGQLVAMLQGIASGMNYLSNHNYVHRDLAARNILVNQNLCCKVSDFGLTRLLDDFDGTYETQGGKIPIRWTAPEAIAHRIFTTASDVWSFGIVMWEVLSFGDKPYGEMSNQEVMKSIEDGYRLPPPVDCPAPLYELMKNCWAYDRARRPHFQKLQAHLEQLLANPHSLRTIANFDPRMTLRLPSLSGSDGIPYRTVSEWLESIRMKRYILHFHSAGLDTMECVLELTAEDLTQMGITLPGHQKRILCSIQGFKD
# UniProt O15379: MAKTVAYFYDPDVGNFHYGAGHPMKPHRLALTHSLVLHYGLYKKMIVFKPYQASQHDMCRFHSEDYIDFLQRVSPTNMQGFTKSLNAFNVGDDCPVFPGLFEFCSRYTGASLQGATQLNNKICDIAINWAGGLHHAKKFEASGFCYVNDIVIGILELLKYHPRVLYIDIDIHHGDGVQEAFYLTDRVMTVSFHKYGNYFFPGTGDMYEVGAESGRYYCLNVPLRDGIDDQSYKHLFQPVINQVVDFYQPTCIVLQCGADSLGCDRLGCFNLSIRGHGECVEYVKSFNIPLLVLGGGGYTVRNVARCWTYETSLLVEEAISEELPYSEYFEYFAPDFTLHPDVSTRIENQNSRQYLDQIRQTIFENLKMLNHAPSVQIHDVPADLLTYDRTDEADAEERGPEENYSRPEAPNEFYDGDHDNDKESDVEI
# Inconclusive results, whose numbers are uncertain, are shown with a selection of clear calls. Potencies beside an inconclusive call are fits to weak or partial responses and may not hold up. Calls of active or inactive are those of the source. How the source made its calls: active means hit-call score of the fitted dose curve at least 0.9, where 1 is the maximum; inconclusive means response in the unintended direction; inactive means score below 0.9.
# Target: human Ephrin type-A Receptor 1 (EphA1), EPHA1 (gene 2041) (UniProt P21709)
# Assay: NVS_ENZ_hEphA1: NovaScreen (NVS) Enzymatic Assay for human Ephrin type-A Receptor 1 (EphA1) (AID 2283158);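 further: activity is signal loss versus DMSO meaning EphA1 kinase inhibition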
# Method in brief: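 Cell-free kinase activity with recombinant protein, 1 hour after dosing; product separated by electrophoretic mobility shift, fluorescence read. Primary screen at 25 uM in duplicate; hits run as concentration-response up to 50 uM, relative to DMSO.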
SMILES,AC50,outcome
O=C(Nc1ccccc1SSc1ccccc1NC(=O)c1ccccc1)c1ccccc1,inconclusive: 6.04 µM,–
CCCCCCCCCCCCCC[N+](C)(C)C,–,inactive
C/C=C\C/C=C/CCCCCCCCOC(C)=O,–,inactive
CC(=O)S[C@@H]1CC2=CC(=O)CC[C@]2(C)[C@H]2CC[C@@]3(C)[C@@H](CC[C@@]34CCC(=O)O4)[C@H]12,inconclusive: 25 µM,–
N#CSCSc1nc2ccccc2s1,–,inactive
CC1(C)NC(=O)N(c2ccc([N+](=O)[O-])c(C(F)(F)F)c2)C1=O,–,inactive
CCCOC(=O)CCCCC(=O)OCCC,inconclusive: 0.297 µM,–
CC(C)CCCCCCc1ccc(O)cc1,inconclusive: 25 µM,–
CN(C)C(=O)NC1(c2ccccc2)CCN(CCC[C@]2(c3ccc(Cl)c(Cl)c3)CCCN(C(=O)c3ccccc3)C2)CC1,inconclusive: 6.25 µM,–
CCCCC(CC)C(=O)OCCOCCOCCOCCOC(=O)C(CC)CCCC (stereo not given),inconclusive: 0.0531 µM,–

# Target: Histone deacetylase 3 (Homo sapiens) (UniProt O15379)
# Assay: NVS_ENZ_hHDAC3: NovaScreen (NVS) Enzymatic Assay for human Histone Deacetylase 3 (HDAC3) (AID 2283163)
# Method in brief: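 Recombinant human HDAC3 with fluorescent substrate, 1 h after dosing; product separated from substrate by electrophoretic mobility shift and read by fluorescence. Primary screen at 25 uM in duplicate; actives (e.g. ≥30% inhibition) retested in concentration-response up to 50 uM.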
SMILES,outcome,AC50
O=C(c1ccc(O)cc1O)c1ccc(O)cc1O,inactive,–
CCCc1cc(=O)[nH]c(=S)[nH]1,–,inconclusive: 4.05 µM
CCN(CC)CCOc1ccc(C(=C(Cl)c2ccccc2)c2ccccc2)cc1,–,active: 4.17 µM
N#CSCSc1nc2ccccc2s1,–,active: 20 µM
CC(C)CCCCCCc1ccc(O)cc1,inactive,–
